These are yes or no findings as the source states them, for the method shown. Binding seen in cells or lysates may run through a third protein. Some results given as binding are weak or reduced against the parent protein; the word gives no strength. Where a sequence is shown, tags or fusion partners need not be part of it.
Key:
Gab1-WT-GFP = target: T1, Gab1-WT-GFP (UniProt Q9QYY0); assay: co-IP; lysates of HEK293 Gab1-KO cells transfected with Gab1-WT-GFP or Gab1-ΔGrb2-GFP, serum-starved 4 h, Hy-IL-6 (50 ng/ml) 15 min; antibody against the GFP tag (1 μg) at 4 °C over night, Protein G-Dynabeads 4 h, three washes (50 mM Tris/HCl pH 7.4, 100 mM NaCl, 1 mM EDTA, 0.1% Nonidet P-40); blots for (p)SHP2, Grb2, Gab1, SHP2, GFP
T1 sequence: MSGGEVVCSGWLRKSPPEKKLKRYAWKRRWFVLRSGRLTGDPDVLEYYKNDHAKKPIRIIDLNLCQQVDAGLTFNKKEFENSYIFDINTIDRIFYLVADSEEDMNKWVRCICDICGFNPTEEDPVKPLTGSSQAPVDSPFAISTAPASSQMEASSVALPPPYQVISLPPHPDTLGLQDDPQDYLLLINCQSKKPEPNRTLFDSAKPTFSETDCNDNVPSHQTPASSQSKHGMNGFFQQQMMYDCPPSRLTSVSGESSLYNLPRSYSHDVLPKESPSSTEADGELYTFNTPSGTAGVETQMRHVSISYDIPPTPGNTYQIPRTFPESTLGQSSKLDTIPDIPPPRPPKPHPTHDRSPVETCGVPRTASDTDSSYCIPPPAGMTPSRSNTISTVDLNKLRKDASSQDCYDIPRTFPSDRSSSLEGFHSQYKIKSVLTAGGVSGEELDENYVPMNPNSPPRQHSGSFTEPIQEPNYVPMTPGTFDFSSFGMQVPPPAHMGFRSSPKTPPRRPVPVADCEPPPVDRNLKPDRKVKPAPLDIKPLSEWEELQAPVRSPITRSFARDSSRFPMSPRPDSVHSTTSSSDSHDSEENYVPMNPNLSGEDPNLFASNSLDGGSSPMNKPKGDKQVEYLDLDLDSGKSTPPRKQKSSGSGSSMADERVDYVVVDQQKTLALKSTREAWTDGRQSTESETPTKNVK

Chains of the proteins cited; added tags and fusions are not shown.
UniProt P62993: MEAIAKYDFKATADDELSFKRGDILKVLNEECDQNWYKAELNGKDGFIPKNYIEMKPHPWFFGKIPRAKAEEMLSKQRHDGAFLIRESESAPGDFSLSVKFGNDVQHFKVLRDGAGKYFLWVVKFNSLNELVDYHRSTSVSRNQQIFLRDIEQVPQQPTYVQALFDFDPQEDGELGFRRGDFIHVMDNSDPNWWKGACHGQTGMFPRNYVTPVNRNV

Gab1-ΔGrb2-GFP = target: T2, Gab1-ΔGrb2-GFP (UniProt Q9QYY0); assay: as above
T2 sequence: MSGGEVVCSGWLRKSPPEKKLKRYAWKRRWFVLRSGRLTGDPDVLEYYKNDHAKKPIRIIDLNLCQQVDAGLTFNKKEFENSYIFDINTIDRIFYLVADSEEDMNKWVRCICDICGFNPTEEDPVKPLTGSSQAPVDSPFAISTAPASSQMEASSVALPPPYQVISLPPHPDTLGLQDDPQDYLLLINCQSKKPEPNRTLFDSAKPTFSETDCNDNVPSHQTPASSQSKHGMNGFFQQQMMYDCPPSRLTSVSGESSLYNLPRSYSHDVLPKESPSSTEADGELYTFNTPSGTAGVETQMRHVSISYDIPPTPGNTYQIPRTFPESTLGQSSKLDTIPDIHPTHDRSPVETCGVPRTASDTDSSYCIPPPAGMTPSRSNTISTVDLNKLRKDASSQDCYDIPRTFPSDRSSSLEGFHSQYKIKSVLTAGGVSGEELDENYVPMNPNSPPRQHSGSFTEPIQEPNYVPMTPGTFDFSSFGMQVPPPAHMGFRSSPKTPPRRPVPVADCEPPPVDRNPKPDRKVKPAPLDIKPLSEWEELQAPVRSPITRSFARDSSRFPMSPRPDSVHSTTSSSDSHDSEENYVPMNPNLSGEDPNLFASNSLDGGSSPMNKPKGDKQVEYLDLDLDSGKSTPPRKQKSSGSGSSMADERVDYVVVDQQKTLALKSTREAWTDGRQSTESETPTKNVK

- binding (Gab1-WT-GFP): binds
- binding (Gab1-ΔGrb2-GFP): no binding
Substance: growth factor receptor bound protein 2 (Grb2) (from UniProt P62993 1-217)
